This passage reports binding results from patent publication US20190085097A1 (published 2019).

No constants are given. Whether binding was seen depends on the method and setting.

The target of assay [1] is trypsin. In words: ELISA, antigen coated at 10 ug/ml, antibody supernatant, compared with anti-digoxin control. In general terms: ELISA stands for enzyme-linked immunosorbent assay.
Assay [2] has as its target chymotrypsin. Described as above.

B1: monoclonal antibody plasmin inhibitor (Pi) (antibody, mouse IgG1, kappa, V domains shown)
VH: EVKLLESGGGLVQPGGSLKLSCAASGFDFSRYWMSWVRQAPGKGLEWIGEINPDSSTINYTPSLKDKFIISRDNAKNSLYLQMSKVRSEDTALYYCASYCGYSYDALDCWGQGTSVTVSS
VL: DIQMTQSPSSLSASLGGKVSITCKASQDINKYISWYQHKPGKGPRLLIHYTSTLQPGIPSRFSGSGSGRDYSFSISNLEPEDIATYYCLQYDNLYTFGGGTKLEIKR
notes: Mouse hybridoma IgG purified from supernatant; also called Pi IgG; Pi MAb38
Regarding B1, the binding entry in assay [1] and in assay [2] was “no binding” in each case.
